No constants are given. Whether binding was seen depends on the method and setting. In cells and extracts the contact can be indirect. Some entries that bind do so weakly or less than the wild type.
Target: T1, 14-3-3γ (YWHAG) (UniProt P61981)
T1 sequence: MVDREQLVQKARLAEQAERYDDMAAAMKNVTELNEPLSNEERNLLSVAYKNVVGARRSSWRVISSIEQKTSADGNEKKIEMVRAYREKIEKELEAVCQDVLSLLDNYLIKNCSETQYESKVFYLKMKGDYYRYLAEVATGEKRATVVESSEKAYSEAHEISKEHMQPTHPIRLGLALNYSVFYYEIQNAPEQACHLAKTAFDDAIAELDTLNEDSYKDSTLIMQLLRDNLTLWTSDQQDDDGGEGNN
Test: co-IP; Co-IP of YWHAG with p-HSPB6 and p-Cofilin, with or without overexpression of HSPB6; no Co-IP method described (cell line, precipitating antibody and buffer not told)

B1: phosphorylated Heat shock protein family B [small] member 6 (p-HSPB6) (protein, UniProt O14558 1-160)
chain: MEIPVPVQPSWLRRASAPLPGLSAPGRLFDQRFGEGLLEAELAALCPTTLAPYYLRAPSVALPVAQVPTDPGHFSVLLDVKHFSPEEIAVKVVGEHVEVHARHEERPDEHGFVAREFHRRYRLPPGVDPAAVTSALSPEGVLSIQAAPASAQAPPPAAAK
modifications: phosphorylated (p-HSPB6); site not given
**Q.** For B1, which binding is on record?
**A.** binds

Reference: article PMC10876707
